Structures are written as SMILES. The list shows a part of the results. Entries with a potency or affinity are not part of this list. The source made no clear call on entries shown without one.

This assay is described as follows: PubChem AID 2002. Particulars: H4 neuroglioma luciferase reporter, luminescence activation; at 12 µM (top of the series) unless noted.
For the molecule `Cc1cc(C)nc(SC2=CS(=O)(=O)c3ccccc32)n1`, the activation is 57.5%.

As for `CC(/C=N/NC(=O)c1cccc(F)c1)=C\c1ccccc1`, the activation amounted to 144%.

For the molecule `Fc1ccc2nc(Nc3nc4c(s3)CCCC4)sc2c1`, the activation worked out at 159%.

With `FC(F)Oc1ccc(C2N=C(c3ccccc3)NO2)cc1` (stereo not drawn), the activation is 136%.

On to `O=C(Nc1ccc(-c2nc3ccccc3s2)c(OC(=O)c2ccccc2)c1)c1ccccc1`, for which the activation was determined as 111%.

Turning to `O=C(Nc1ccccc1)C(=O)Nc1ccc2c(c1)N(C(=O)C1CC1)CCC2`, the activation is 48.3%.

For the molecule `O=C(NC1CCCCC1)C(=S)NC1CCCCC1`, the activation worked out at 127%.

For `O=C(NCCS(=O)(=O)NCCc1ccccc1)c1ccc2c(c1)OCO2`, the activation was 80.5%.

`Oc1ccc(/C=N/Nc2cccc3cccnc23)c(O)c1`: the activation is 157%.

Take `COc1cc2ccccc2cc1C(=O)Nc1ccc(N2CCN(C)CC2)cc1`: the activation came out at 66%.

As for `C[C@@H]1C[C@@H]2O[C@H]2/C=C\C=C\C(=O)Cc2c(Cl)c(O)cc(O)c2C(=O)O1`, the activation amounted to 51.1% [at 6 µM].

Consider `Cc1c(-c2nc(-c3ccc(C(F)(F)F)cc3)no2)n(C)oc1=O`, for which the activation turned out to be 91%.

Turning to `Cc1csc2nc(CSc3nc4ccccc4o3)c(Br)n12`, the activation turned out to be 138% [at 6 µM].

`CCOC(=O)c1sc2nc(NC(=O)C(C)(C)C)sc2c1C`: the activation is 167% [at 3 µM].

As to `CCCCNc1ncnc2c1cnn2-c1ccccc1`, the activation was determined as 42.5%.

On to `O=[N+]([O-])c1nn(-c2ccc3c(c2)OCCO3)n(O)c1=NCCC1=CCCCC1`, for which the activation came out at 119%.

With `Cc1ccc(-n2c(C)cc(C(=O)CSc3nncs3)c2C)cc1`, the activation stood at 62.6%.

Regarding `Cc1c(-c2nc(N)nc(Nc3ccccc3F)n2)oc2ccccc12`, the activation is 79.5%.

As to `c1ccc(C2=NNC(c3ccccn3)=NN2)nc1`, the activation is -4.6%.

Take `C/C(=N\Nc1nc2c(s1)CCCC2)c1ccccc1`: the activation was 71%.

Turning to `Nc1nc(-c2sc3nc4c(cc3c2N)CCCC4)nc(N2CCOCC2)n1`, the activation was determined as 125%.

For `O=C(O)c1ccc(N/N=C/c2cn(Cc3ccc(F)cc3)c3ccccc23)cc1`, the activation came out at 51.1%.

Turning to `COc1ccc(CCNC(=O)c2ccc3c(c2)OCCO3)cc1`, the activation was determined as 109%.

Turning to `Nc1nc(NC(=O)c2cccs2)nn1-c1ccccc1`, the activation was 80.1%.

For `O=C(N/N=C/c1cc(Br)cs1)c1ccc2c(c1)OCCO2`, the activation was 87.7% [at 3 µM].

Turning to `Cc1ccc(S(=O)(=O)c2cc3ccccc3oc2=O)cc1`, the activation came out at 24.7%.

For `CC(C)N=C1NN=C(c2ccc(Cl)c(Cl)c2)CS1`, the activation was 61.4%.

For the molecule `COc1cc2sc3ccc(-c4ccc5[nH]ccc5c4)cc3c(=O)c2cc1OC`, the activation amounted to 165%.

Turning to `O=C(Nc1ccc2cn[nH]c2c1)c1ccccc1F`, the activation turned out to be 116%.

Consider `Cc1ccc(-c2nc(N/N=C/c3ccccc3[N+](=O)[O-])c3ccccc3n2)cc1`, for which the activation came out at 108%.

On to `Cc1cc(C(=O)COC(=O)C2=COCCO2)c(C)n1-c1cccc(F)c1`, for which the activation is 31.7%.

With `CN=c1scc(-c2ccco2)n1/N=C/c1ccc(O)c(O)c1`, the activation was determined as 126%.

On to `CCCn1c(C)cc(C(=O)COc2ncnc3sccc23)c1C`, for which the activation was found to be 54.4%.

As to `Nc1nn(-c2cccc(F)n2)cc1-c1ccccc1`, the activation was determined as 46%.

For the molecule `Nc1ncn([C@H]2C[C@H](O)[C@@H](CO)O2)c(=O)n1`, the activation was determined as 109%.

Take `O=c1c(Cl)c(NCCCO)cnn1-c1nc2ccccc2[nH]1`: the activation was found to be 99.1%.

Consider `CCSc1ncc(/C=N/Nc2ccc([N+](=O)[O-])cc2)n1C`, for which the activation is 126%.

As for `COc1ccc(NC(=O)NC(=O)c2ccccc2)cc1`, the activation stood at 78.4%.

On to `Cc1ccc(/C=N/N=C/c2ccc(C)s2)s1`, for which the activation stood at 89.1%.

With `COc1ccccc1C(=O)COC(=O)c1ccc(N(C)C)cc1`, the activation was 143%.

`CC(C)(C)c1ccc(OCCn2ccccc2=O)cc1`: the activation is 103%.

Turning to `COc1ccc(N/C=C\C(=O)c2ccc3c(c2)OCO3)cc1`, the activation stood at 164% [at 6 µM].

On to `CCOC(=O)c1c(C)[nH]c(C2=NNC(=NC(C)COC)SC2)c1C` (stereo not drawn), for which the activation was 40.9%.

As for `Cc1ccccc1Nc1nc(N)nc(CSc2ccc(F)cc2)n1`, the activation was found to be 143%.

With `N#Cc1ccsc1NC(=O)COC(=O)c1ccc2ccccc2c1`, the activation stood at 129%.

Regarding `Cc1ccc(C2=CSC3=NNC4(CCCCC4)NN23)cc1`, the activation amounted to 131%.

For the molecule `Clc1ccc2nc(CSCc3ccccc3)cn2c1`, the activation came to 141% [at 6 µM].

As to `Cc1ccc(-n2c(C)cc(C(=O)COC(=O)c3ccc[nH]c3=O)c2C)cc1`, the activation came to 105% [at 3 µM].

On to `CCc1ccc(NC(=O)c2ccccc2NC(=O)C2CCCO2)cc1` (stereo not drawn), for which the activation worked out at 97.8%.

Consider `COc1ccc(-n2ncc3c(N4CCc5ccccc54)ncnc32)cc1`, for which the activation is 43.1%.

As for `CCN1C(=S)SC(=O)C1=C1C=C(C)N(CCO)C(C)=C1`, the activation was found to be 70%.

On to `c1ccc(N2CCN(c3nc4cc5c(cc4s3)OCCO5)CC2)cc1`, for which the activation worked out at 87.5%.

Take `c1csc(C2=NNC(=NC3CCCCC3)SC2)c1`: the activation came to 70.7%.

As for `CC(C)(C)C1CCc2c(sc3nc(SCC(N)=O)nc(N)c23)C1` (stereo not drawn), the activation worked out at 107%.

Consider `CC1CCc2c(sc(NC(=O)c3nc4ncccn4n3)c2C#N)C1` (stereo not drawn), for which the activation amounted to 92.4%.

With `CN(C)/C=N/c1cnc(C(=O)c2ccc(Cl)cc2)n1C`, the activation came out at 122%.

With `O=C(Nc1ccc2ccccc2n1)c1ccccc1Br`, the activation came out at 203% [at 6 µM].

Take `O=C(Cc1nc2ccccc2[nH]c1=O)c1ccccc1`: the activation amounted to 95%.

Take `Cc1cc(/C=C2/C(=O)NN(c3ccccc3)C2=O)c(C)n1-c1ccc(O)cc1`: the activation is 51.2%.

Take `CCOc1ccc(-c2cc(C(=O)N/N=C(\C)c3cccnc3)c3ccccc3n2)cc1`: the activation is 32.9%.

Regarding `Cc1ccc2c(CC(=O)N3CCc4ccccc43)coc2c1`, the activation turned out to be 125%.

With `COc1ccc(-n2nnnc2-c2nc3ccccc3s2)cc1`, the activation was 17.5%.

Turning to `O=C(N/N=C/c1sc(=O)n(-c2ccccc2)c1Cl)c1ccccc1`, the activation amounted to 142% [at 6 µM].

`Clc1c(CSc2nc3ccccc3o2)nc2ccccn12`: the activation is -32.6%.

As to `O=C(Nc1cnc2ccccc2c1)N1CCCCC1`, the activation amounted to 16%.

As to `COc1ccc(C2=NN(CN3C(=O)C(=O)c4ccccc43)C(c3ccc(OC)cc3)C2)cc1` (stereo not drawn), the activation amounted to 214%.

`CC(C)c1ccc(-c2cc(C(=O)N3N=C(C(F)F)CC3(O)C(F)F)c3ccccc3n2)cc1` (stereo not drawn): the activation was 45%.

With `Cc1cc2cc(OCc3ccccc3)ccc2n1C`, the activation came to 151%.

As to `CCOC(=O)CSc1nc(-c2ccncc2)ccc1C#N`, the activation came to 61.9%.

In the case of `CC(=O)N(/N=C1\Sc2ccccc2C1=O)c1ccccc1C`, the activation is 162%.

As for `Cc1ccc(C(=O)OCC(=O)c2cc(C)n(CC3CCCO3)c2C)cc1` (stereo not drawn), the activation amounted to 82.5%.

As to `N/C(=N\OC(=O)/C=C/c1ccccc1Cl)c1cccnc1`, the activation came to 214%.

Turning to `Cc1cc(C(=O)CSc2nnnn2-c2ccccc2)c(C)n1CC1CCCO1` (stereo not drawn), the activation stood at 104%.

Take `O=C1CCCc2nc3c(cc21)C(O)Oc1c-3ccc2ccccc12` (stereo not drawn): the activation came out at 78%.

Consider `Cc1[nH]c2ccccc2c1C(=O)/C=C/c1ccccc1Cl`, for which the activation came out at 139%.

With `CC1(C)Cc2c(sc(NC(=O)Nc3ccccc3)c2C(N)=O)CO1`, the activation amounted to 120%.

For the molecule `Cc1ccc(N=Nc2c(N)n(-c3ccccc3)[nH]c2=O)cc1`, the activation came out at 175%.

On to `Cc1cc(C(=O)NC2CCCCC2)c(C)n1-c1ccc(F)cc1`, for which the activation amounted to 83.7%.

Regarding `COC(=O)Cc1c(OC)ccn(CCc2c[nH]c3ccccc23)c1=O`, the activation was 111%.

As to `Cc1ccsc1C(=O)Nc1ccc(OCc2ccccc2)cc1`, the activation is 178% [at 6 µM].

Turning to `O=C(c1cnn(-c2ccc(Cl)cc2)c1)c1ccccc1O`, the activation was 32.7%.

As for `Cc1cc(-c2n[nH]c(=S)o2)c(C)n1-c1ccccc1`, the activation was found to be 101%.

With `CCc1sc(C(=O)Nc2ccc3c(c2)OCCO3)cc1Br`, the activation came out at 186% [at 6 µM].

On to `O=C(Nc1ccc(Cl)cc1)c1ccc(OCC2CCCO2)cc1` (stereo not drawn), for which the activation amounted to 124%.

As to `CC(C)(C)c1ccc(NC(=O)Nc2ccc(F)cc2)cc1`, the activation was 149%.

For the molecule `O=C(Cc1nc(=O)c2ccccc2s1)Nc1ccccc1`, the activation was found to be 104%.

Take `O=C(Nc1nccs1)c1cc2c(s1)-c1ccccc1OC2`: the activation was 171%.

`COc1ccccc1C(=O)Nc1nnc(SCC(=O)NCC2CCCO2)s1` (stereo not drawn): the activation worked out at 75.8%.

On to `O=c1c(Cl)c(N/N=C/c2ccc(Cl)cc2)cnn1-c1ccccc1`, for which the activation was determined as 66.1%.

For `COCCNC(=O)/C(C#N)=C/c1cc(C)n(C2CCCCC2)c1C`, the activation is 51.6%.

With `Cc1ccc2nc(C3CCCCC3)[nH]c2c1`, the activation amounted to 113%.

Regarding `CCOc1cccc(-c2csc(C3COc4ccccc4O3)n2)c1` (stereo not drawn), the activation turned out to be 139%.

Take `COc1ccc(/C(O)=C2/C(=O)C(=O)N(c3ccccn3)C2c2ccc(C(C)C)cc2)cc1` (stereo not drawn): the activation stood at 131%.

`CCS(=O)(=O)c1nnnn1-c1ccccc1S(C)(=O)=O`: the activation stood at 40.5%.

As for `Cc1ccc(N=c2c([N+](=O)[O-])nn(-c3ccccc3)n2O)c(C)c1`, the activation turned out to be 138%.

As to `O=C(Nc1cc(-c2ccccc2)[nH]n1)c1ccccc1F`, the activation came out at 156% [at 6 µM].

On to `CCN1/C(=C\c2ccc3ccccc3[n+]2CC)Sc2cc(C)ccc21`, for which the activation was -94.7%.

Take `O=C(Nc1ccccc1)N1CC=C(c2ccccc2)CC1`: the activation is 87.5%.

Regarding `Clc1nc(-c2ccccn2)nc2scc(-c3ccccc3)c12`, the activation was 69.1%.

With `O=C(Nc1ncccc1O)c1ccc(Oc2ccccc2)cc1`, the activation was 55.7%.

For `O=[N+]([O-])c1cccn2cc(-c3ccc(Br)cc3)nc12`, the activation is 210%.

As to `Cc1c(C(=O)Nc2ccccc2[N+](=O)[O-])csc1-c1ccccc1`, the activation is 42.4%.

As for `O=C(CCCc1ccccc1)NC12CC3CC(CC(C3)C1)C2`, the activation is 204%.

With `c1ccc2nc(-c3ccc(-n4ccnc4)cc3)ccc2c1`, the activation is 19.4%.

`N#Cc1c(NC(=O)c2ccccc2)sc2c1CCC2`: the activation was determined as 68.5%.

Turning to `Cc1ccc2c(c1)sc1nc(=O)n(-c3cccc(Cl)c3)c(=O)n12`, the activation came to 119%.

For the molecule `CCC(=C/c1sc2ccc3ccccc3c2[n+]1C)/C=C1\Sc2ccc3ccccc3c2N1C`, the activation was -74.1%.

Consider `c1ccc(OCCSc2nnnn2C2CCCCC2)cc1`, for which the activation was determined as 47.3%.

For the molecule `O=[N+]([O-])c1ccc2nc(-c3ccc(Cl)cc3)n(OCc3ccccc3)c2c1`, the activation stood at 112%.

With `COc1ccc(Cn2c(C3CC3)nc3ccc(NC(=O)C4CC4)cc3c2=O)cc1`, the activation was determined as 140%.

In the case of `Cc1cc(NC(=O)OC2CCCCC2)ccc1[N+](=O)[O-]`, the activation turned out to be 121%.

`CCc1ccc2oc(-c3cc(N=Cc4cccc(OC)c4O)ccc3O)nc2c1`: the activation is -26.7%.

Regarding `COc1ccc(/C=C2\CCn3c2nc2ccccc2c3=O)cc1OC`, the activation amounted to 143%.
